The text below walks through data of PMC6853996, “Assaying Homodimers of NF-κB in Live Single Cells” (Frontiers in Immunology, 2019).

Protein sequences, listed by entry. Tags and fused reporters are not part of them.
UniProt Q04207: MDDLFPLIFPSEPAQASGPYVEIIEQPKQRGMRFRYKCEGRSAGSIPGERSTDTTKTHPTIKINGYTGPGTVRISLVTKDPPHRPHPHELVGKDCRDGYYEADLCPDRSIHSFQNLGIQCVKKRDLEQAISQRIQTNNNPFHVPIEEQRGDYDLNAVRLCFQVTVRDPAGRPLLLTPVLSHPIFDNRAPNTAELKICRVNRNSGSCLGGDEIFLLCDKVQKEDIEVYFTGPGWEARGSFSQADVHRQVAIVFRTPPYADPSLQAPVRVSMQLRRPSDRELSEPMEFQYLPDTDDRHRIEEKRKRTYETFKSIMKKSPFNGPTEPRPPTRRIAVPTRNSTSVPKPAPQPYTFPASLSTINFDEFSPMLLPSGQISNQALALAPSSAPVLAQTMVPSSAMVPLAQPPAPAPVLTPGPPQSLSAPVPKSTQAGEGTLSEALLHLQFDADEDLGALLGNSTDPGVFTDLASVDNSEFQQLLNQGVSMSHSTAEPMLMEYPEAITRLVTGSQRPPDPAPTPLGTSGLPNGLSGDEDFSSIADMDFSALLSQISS

In this assay the target is RelA immunoprecipitated with anti-RelA antibody from whole-cell extracts (UniProt Q04207). Nature of the assay: co-IP; whole-cell extracts (1% NP-40, 50 mM Tris-HCl pH 7.5, 150 mM NaCl); anti-RelA on protein A Dynabeads, overnight 4°C; immunoblot; LPS-treated cells with or without WFA or TSA pre-incubation. A general note: A western blot detects proteins with antibodies after separation by electrophoresis.

These are yes or no findings as the source states them, for the method shown. In cells and extracts the contact can be indirect. Some entries that bind do so weakly or less than the wild type.

“p105 (NF-κB1 precursor) (from UniProt P25799-1 1-971)”: the binding entry is reported as “binds”.
